Experimental data taken from US20230322706A1, “NOVEL BIARYL DERIVATIVE USEFUL AS DIACYLGLYCEROL ACYLTRANSFERASE 2 INHIBITOR, AND USE THEREOF” (LG CHEM, LTD., priority 2020, published 2023).
Structures were worked out from names or drawings and are uncertain.

Amino acid sequences for entries named in this document (tags omitted).
UniProt Q96PD7, whole entry: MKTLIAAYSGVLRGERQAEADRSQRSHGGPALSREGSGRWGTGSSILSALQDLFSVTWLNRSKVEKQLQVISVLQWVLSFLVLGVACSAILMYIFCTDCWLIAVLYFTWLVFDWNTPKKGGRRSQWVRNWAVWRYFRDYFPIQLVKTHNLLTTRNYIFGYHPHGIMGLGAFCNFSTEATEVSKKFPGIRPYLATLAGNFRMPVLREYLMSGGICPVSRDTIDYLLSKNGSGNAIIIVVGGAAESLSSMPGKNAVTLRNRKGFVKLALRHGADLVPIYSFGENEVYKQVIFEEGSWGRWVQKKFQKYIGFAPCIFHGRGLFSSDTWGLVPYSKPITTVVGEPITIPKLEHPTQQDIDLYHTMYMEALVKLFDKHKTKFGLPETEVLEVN

Molecular target: human DGAT2 (Homo sapiens (Human), UniProt Q96PD7)
Test: Measurement of inhibitory effect against DGAT2 enzyme activity (SPA, Phospholipid FlashPlate, [14C]-TG production)
Conditions: recombinant human DGAT2 membrane protein from Sf-21 cells; inhibition of [14C]-TG production; 37° C.

IC50: 250 nM
Structure (SMILES): CCOc1cccnc1Oc1cccc(-c2cncc(NC(=O)Cc3ccc(OC(C)(C)C(=O)O)cc3)n2)c1
